The source of these data is publication PMC7819943, “Rice protein-binding microarrays: a tool to detect cis-acting elements near promoter regions in rice”.

The chains behind the UniProt entries cited, without tags or fusion partners.
UniProt Q0JBA9, entry or part of it: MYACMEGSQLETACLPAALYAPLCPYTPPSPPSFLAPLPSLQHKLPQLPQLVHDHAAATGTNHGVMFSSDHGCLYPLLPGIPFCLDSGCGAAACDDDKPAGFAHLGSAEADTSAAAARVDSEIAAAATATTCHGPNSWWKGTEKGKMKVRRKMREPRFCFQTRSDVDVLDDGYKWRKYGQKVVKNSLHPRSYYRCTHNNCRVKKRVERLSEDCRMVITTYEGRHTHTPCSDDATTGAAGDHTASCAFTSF

This is one part of the list.

For this experiment, the target named is OsWRKY34 (Oryza sativa, UniProt Q0JBA9 1-250). Kind of experiment: protein-binding microarray (RPBM); PBS, 2% BSA, 51.3 ng/ul salmon testes DNA, 50 uM zinc acetate, 200 nM TF, 25 C, 1 h; high values mean tight binding. As to conditions: protein: recombinant; tags: N-terminal polyhistidine and DsRed monomer fusion (pET32a); label: CyDye5-dUTP incorporated in the synthesized complementary strand; 3' TTTTT single-stranded linker to array surface; dsDNA, one strand shown. The method in brief:
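Binding signal here means per-feature fluorescence intensity in arbitrary units. The values were read on an Axon 4000B scanner after a custom Agilent array, double-stranded by primer extension with Cy5-dUTP, was incubated with 200 nM protein at 25 °C for 1 h in PBS with 2% BSA, salmon testes DNA and 50 µM zinc acetate, then washed. The proteins were transcription factors with an N-terminal polyhistidine tag and DsRed, expressed in E. coli BL21-CodonPlus and purified on Ni–NTA.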
On to “GGCTGATTGGGCAGATTCTTTTATTGTTTCTATTTATAAACGGAGTCACCTAGTGCAG”, for which the binding signal was 9290 fluorescence intensity (a.u.).
Regarding “AATCTTCTCCACTCCACTTCTTGTGTGCCGAGCTTCGTTCCGGAGTCACCTAGTGCAG”, the binding signal is 13300 fluorescence intensity (a.u.).
For the sequence “ACCATCAACCTCCACAAGCGCCTCCACAGCTGGTACGTCCCGGAGTCACCTAGTGCAG”, the binding signal was 9680 fluorescence intensity (a.u.).
Under “TAAGTTGTTTGACTTTTTTTCTAGTCAAACTTGTCTGAGTCGGAGTCACCTAGTGCAG” stands 17000 fluorescence intensity (a.u.); under “ACAAATCCATTTGTTCCTTTGCCACTATGCTTTGATTTAGCGGAGTCACCTAGTGCAG”, 8040 fluorescence intensity (a.u.); under “TTTTGTTTCACCATTTCGGCTCACTCCATAGGACATGGAACGGAGTCACCTAGTGCAG”, 9200 fluorescence intensity (a.u.).
Consider “TTTCTGTATAGGTTTTTGCCGGTTTCCCGTTTAATTAACCCGGAGTCACCTAGTGCAG”, for which the binding signal was 11500 fluorescence intensity (a.u.).
Take “AAGCTACCTGAACGGTTTCTCTGTACTTTATTTTTATGGTCGGAGTCACCTAGTGCAG”: the binding signal is 8270 fluorescence intensity (a.u.).
The figure for “TTGTAGGTAGTCGATTGCGTTGACATTTTGACATCATTTTCGGAGTCACCTAGTGCAG” is 9450 fluorescence intensity (a.u.); for “TCATCTCCATCTTTTTATTTACACGCACACTTCTCAAACTCGGAGTCACCTAGTGCAG” it is 11100 fluorescence intensity (a.u.); for “GTACATTTCACTCTCTTTTATAACACTATAATTGCATCCCCGGAGTCACCTAGTGCAG” it is 8510 fluorescence intensity (a.u.).
Regarding “CCTTATCCATGGAACTGTCTGCAACTTTTGTTATTGATGACGGAGTCACCTAGTGCAG”, the binding signal was 10200 fluorescence intensity (a.u.).
Consider “CTCTGCCTTGCTCTTTTATCTCGATTCAGATACAGCGTAACGGAGTCACCTAGTGCAG”, for which the binding signal was 9000 fluorescence intensity (a.u.).
Consider “TTGGTGTGGCATTTACCTGATATCACGAATAGTAGTGATACGGAGTCACCTAGTGCAG”, for which the binding signal was 9590 fluorescence intensity (a.u.).
In the case of “ACATCTGTGACTACGGACATGTATGGTATAGGGTTCTAACCGGAGTCACCTAGTGCAG”, the binding signal is 8880 fluorescence intensity (a.u.).
For the sequence “CAGTTCAGTCGTCGTCTTCCTCCTCCTAACCTCCAGCTATCGGAGTCACCTAGTGCAG”, the binding signal is 9220 fluorescence intensity (a.u.).
In the case of “GCTCCATTCTTTTTTTTCTTTTCTGTTTGATTTGATTTGACGGAGTCACCTAGTGCAG”, the binding signal was 8940 fluorescence intensity (a.u.).
As to “CTCTCTCTCTCTGCGTCCGTCCCTCCCTCGCTTGACTTCTCGGAGTCACCTAGTGCAG”, the binding signal is 9710 fluorescence intensity (a.u.).
Turning to “CTTATGCTAAGTTGGGGTCGGGGAGACTGGGGAGCTTCTCCGGAGTCACCTAGTGCAG”, the binding signal is 13000 fluorescence intensity (a.u.).
As to “TCAAGGGGCTGTTTGGTTGCTTCCCAAACGTTGCCACACTCGGAGTCACCTAGTGCAG”, the binding signal is 8760 fluorescence intensity (a.u.).
For the sequence “CATGCACTTTCTGACTGTAGAGTTTTCCATTAATTAGCCTCGGAGTCACCTAGTGCAG”, the binding signal is 8990 fluorescence intensity (a.u.).
As for “CGATCCCGAGGCCGCCACCACCACCCACCCGCTTCTCCTCCGGAGTCACCTAGTGCAG”, the binding signal is 12600 fluorescence intensity (a.u.).
Turning to “ACCCGCCCCTGCTGCTCACCGCTCCAGCCTCCGCTCATCCCGGAGTCACCTAGTGCAG”, the binding signal is 8790 fluorescence intensity (a.u.).
With “ATAGATAAAGTTTACTCGTGCCCGTTTGGGTTGTTTGATGCGGAGTCACCTAGTGCAG”, the binding signal was 9450 fluorescence intensity (a.u.).
The figure for “ACATCTTCTTATTATTTTTTAAATTTTTTTCATATCCATTCGGAGTCACCTAGTGCAG” is 10800 fluorescence intensity (a.u.); for “CCAACCGTTGACAAGTCTCATCGTACGTTTTTATTTAGAGCGGAGTCACCTAGTGCAG” it is 8870 fluorescence intensity (a.u.).
Under “TGATATGATTCTTCTTCTTCCTTTGGTTAATTGTCGTCTTCGGAGTCACCTAGTGCAG” stands 8850 fluorescence intensity (a.u.); under “CAACCTGCATACGCCATCTTGTTGTACTCGATCTGATCTCCGGAGTCACCTAGTGCAG”, 8560 fluorescence intensity (a.u.).
In the case of “GGTTATGGTTCAATTCTAATGTTCCTTTGGTGTCACATTTCGGAGTCACCTAGTGCAG”, the binding signal was 8200 fluorescence intensity (a.u.).
As to “CTTGCTACTGCATTGCAATTTGCATTATTTGAGGCCTACACGGAGTCACCTAGTGCAG”, the binding signal was 9280 fluorescence intensity (a.u.).
For “GGCTCGTCGCTGCCGCCTGTATGCTTCTTCCTTCCTTAGCCGGAGTCACCTAGTGCAG”, the binding signal was 8420 fluorescence intensity (a.u.).
For the sequence “AACAATCTAGGGTTCTACTGTTTTTTTCTGTTCTGGCTCGCGGAGTCACCTAGTGCAG”, the binding signal was 8800 fluorescence intensity (a.u.).
For the sequence “CTCCGTCGCCACGCTCGCCCTCCGCTTCTTTGCCCGCCGCCGGAGTCACCTAGTGCAG”, the binding signal was 8350 fluorescence intensity (a.u.).
For the sequence “TTTCGCTGCCACACACACACACACACAAACACAACGACCTCGGAGTCACCTAGTGCAG”, the binding signal was 10300 fluorescence intensity (a.u.).
“ACAGTTCCGTACTTTTCAGTCTGGCGACAGTTTTTTTCATCGGAGTCACCTAGTGCAG”: the binding signal is 11500 fluorescence intensity (a.u.).
For “GCTTCGGCTCGGGGTGGGTTGGGTTGGGTTGGGTTCGATGCGGAGTCACCTAGTGCAG”, the binding signal was 32400 fluorescence intensity (a.u.).
Under “CCCGTGCATGCTTGTGGAAGTCCCATTTCTCTCGCGACAACGGAGTCACCTAGTGCAG” stands 12800 fluorescence intensity (a.u.); under “GGCGGAGGGAGGGAGGGGAAGTCGGTGGTGAGGTGGCGTGCGGAGTCACCTAGTGCAG”, 12900 fluorescence intensity (a.u.); under “TGATTTTTCGACAAATGTTTGACCTTTCGTCTTATTTAAACGGAGTCACCTAGTGCAG”, 8830 fluorescence intensity (a.u.).
On to “TTCTGGATTGTTCGGCACCCTCGCTAATCCCTAAAGTTATCGGAGTCACCTAGTGCAG”, for which the binding signal was 10500 fluorescence intensity (a.u.).
In the case of “AATGCCTGTTTTTGTACCTTTGGTAATATCGTCCAAATTTCGGAGTCACCTAGTGCAG”, the binding signal is 9150 fluorescence intensity (a.u.).
In the case of “TTCCTTTCAAAGTCCAGTTTGTGTCCTTTCAATCGACCCTCGGAGTCACCTAGTGCAG”, the binding signal is 8740 fluorescence intensity (a.u.).
For “AATTATTTCACCTGTACCGTACTTACTTTCGGCCATTATTCGGAGTCACCTAGTGCAG”, the binding signal was 9340 fluorescence intensity (a.u.).
For the sequence “CAAAAACGACCATCTTATCCACCATAGCTATCGCTTCATGCGGAGTCACCTAGTGCAG”, the binding signal is 8300 fluorescence intensity (a.u.).
Turning to “ACATCTCACATCTCGCACTCGCATCGCAGCTCCCAACTCCCGGAGTCACCTAGTGCAG”, the binding signal is 8680 fluorescence intensity (a.u.).
As for “TTGCTCTGTTTTTCTATGTTGTCGTATTTTCGTCAGATACCGGAGTCACCTAGTGCAG”, the binding signal is 8240 fluorescence intensity (a.u.).
On to “AAAAACTCTTTTCGATATACGGTCAAGCATCTGATATGACCGGAGTCACCTAGTGCAG”, for which the binding signal is 8230 fluorescence intensity (a.u.).
Take “CACAAGCAAAATTATTTTCTTTTCTTTTTTGCAGTCAAATCGGAGTCACCTAGTGCAG”: the binding signal was 8060 fluorescence intensity (a.u.).
The figure for “TTCGTGCCTTTTGTTTGATAATTTCTTCATGCTATCTTTTCGGAGTCACCTAGTGCAG” is 12800 fluorescence intensity (a.u.); for “ATTTGTAGTTCCTCGGTTTGGTTTGATTTGGTGAGGCGGGCGGAGTCACCTAGTGCAG” it is 8320 fluorescence intensity (a.u.); for “TGCCAACGGCGCCACGCCACCAACCTCCGATCGATCGATCCGGAGTCACCTAGTGCAG” it is 8370 fluorescence intensity (a.u.).
For “CCCGATTTATGCCGGCCCAGGGTGGGAGGGGCAAAGAATGCGGAGTCACCTAGTGCAG”, the binding signal is 8540 fluorescence intensity (a.u.).
Consider “ACCTGCCGTTATCCCACAACCCACCACTCCACCAGCTTTCCGGAGTCACCTAGTGCAG”, for which the binding signal is 8740 fluorescence intensity (a.u.).
Regarding “GTCATGTCTACGTGTCGCGCTCCAGTTCGCCGCCCACCACCGGAGTCACCTAGTGCAG”, the binding signal was 9060 fluorescence intensity (a.u.).
